According to PMC7819943, “Rice protein-binding microarrays: a tool to detect cis-acting elements near promoter regions in rice”:
Some of the results follow.

Each sequence was assayed against T1, OsSMF1 (Oryza sativa, UniProt Q6ZLB0 1-436) (assay: protein-binding microarray (RPBM); PBS, 2% BSA, 51.3 ng/ul salmon testes DNA, 50 uM zinc acetate, 200 nM TF, 25 C, 1 h; high values mean tight binding). Conditions: protein: recombinant; tags: N-terminal polyhistidine and DsRed monomer fusion (pET32a); chain copies: 2; label: CyDye5-dUTP incorporated in the synthesized complementary strand; 3' TTTTT single-stranded linker to array surface; dsDNA, one strand shown.
T1 sequence: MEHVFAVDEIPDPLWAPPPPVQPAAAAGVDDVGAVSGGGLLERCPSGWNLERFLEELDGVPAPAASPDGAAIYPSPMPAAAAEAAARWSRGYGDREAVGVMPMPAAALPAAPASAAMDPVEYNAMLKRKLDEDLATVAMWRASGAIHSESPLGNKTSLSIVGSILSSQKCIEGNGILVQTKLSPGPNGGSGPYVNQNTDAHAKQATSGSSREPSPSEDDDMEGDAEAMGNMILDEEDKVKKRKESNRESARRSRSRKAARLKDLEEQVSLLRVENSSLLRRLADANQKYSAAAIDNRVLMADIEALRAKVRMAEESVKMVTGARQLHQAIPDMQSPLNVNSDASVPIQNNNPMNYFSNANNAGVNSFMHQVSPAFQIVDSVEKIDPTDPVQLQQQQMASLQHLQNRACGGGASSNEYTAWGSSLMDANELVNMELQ
Outline: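 Ni–NTA purification followed expression in E. coli BL21-CodonPlus of transcription factors fused N-terminally to a polyhistidine tag and DsRed. At 200 nM in PBS with 2% BSA, salmon testes DNA and 50 µM zinc acetate, the protein was incubated for 1 h at 25 °C with a custom Agilent array that had been primer-extended with Cy5-dUTP and blocked with 2% BSA. After washing, the array was read on an Axon 4000B scanner. The binding signal is per-feature fluorescence intensity in arbitrary units.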
With “GTGGGTTGGTTGGGCCTGTTCAACGTGGTGTAGCGTTGATCGGAGTCACCTAGTGCAG” the binding signal was 3380 fluorescence intensity (a.u.).
In the case of “CTCCAGCGTCTGCTACAGTGACGCAATCATGCAATCATTTCGGAGTCACCTAGTGCAG”, the binding signal was 3840 fluorescence intensity (a.u.).
With “AAATTCTTACTCGTGATGATGTGTACGAATCTCAAACATTCGGAGTCACCTAGTGCAG” the binding signal was 8680 fluorescence intensity (a.u.).
In the case of “CCTTTCCAGAGCGTCTCGGTCACGTAACAAGAACCTCACTCGGAGTCACCTAGTGCAG”, the binding signal was 3140 fluorescence intensity (a.u.).
In the case of “CAAACGTGTCAGATTACACGTGGCTCGGTCAACGAATGGCCGGAGTCACCTAGTGCAG”, the binding signal was 14500 fluorescence intensity (a.u.).
With “ATGCATATATACGTGTACGTACGTGCTGTTAGTGTTAGCTCGGAGTCACCTAGTGCAG” the binding signal was 6860 fluorescence intensity (a.u.).
“TCTTCTATTGACGCCCGTGGTGACTTCATCGATCTAGAGACGGAGTCACCTAGTGCAG” was tested, and the binding signal was 4120 fluorescence intensity (a.u.).
With “TAAAGACCTCACACACGTTGCAACGTACTACGAGCTTTTCCGGAGTCACCTAGTGCAG” the binding signal was 3160 fluorescence intensity (a.u.).
With “TCCCATCCTAGCCGTCGGTTCCAAATCTGACGGCATCAAGCGGAGTCACCTAGTGCAG” the binding signal was 3250 fluorescence intensity (a.u.).
“AGTCGCCTCCTCGCACCTACTACCCTACTAGGTCATGCCACGGAGTCACCTAGTGCAG” was tested, and the binding signal was 3910 fluorescence intensity (a.u.).
In the case of “ACCTGGGCGGATACTACGTCACCCCGGAGCTCTGCAAGTCCGGAGTCACCTAGTGCAG”, the binding signal was 6570 fluorescence intensity (a.u.).
“CTAGAACCAGGTTTAGGAATAAAATTTGGGAGAGTATATTCGGAGTCACCTAGTGCAG” was tested, and the binding signal was 3370 fluorescence intensity (a.u.).
For “ATCTGTCTTTGTTTGAAATCAGATTGGTTCAAAACAAGCGCGGAGTCACCTAGTGCAG”, the binding signal was 21900 fluorescence intensity (a.u.).
With “ATACAACTAAATTAAATGGTTGGACTCCTCATGTTGAAGACGGAGTCACCTAGTGCAG” the binding signal was 3630 fluorescence intensity (a.u.).
For “CAATTTTAAACGGACTGGGAGCTGTCCATGCTGACCCATGCGGAGTCACCTAGTGCAG”, the binding signal was 3740 fluorescence intensity (a.u.).
For “ATGGTGGTTGTGTCTTATATTTTGGAATGGAGGGACTTATCGGAGTCACCTAGTGCAG”, the binding signal was 21300 fluorescence intensity (a.u.).
For “TGCCGCTCTACCGTCTTCTCGTCTCACGCGACGTGTCGTACGGAGTCACCTAGTGCAG”, the binding signal was 3790 fluorescence intensity (a.u.).
For “ACACTGCCACGTCAGCGCCACGTTAGCAAAACCGTCCTCCCGGAGTCACCTAGTGCAG”, the binding signal was 35500 fluorescence intensity (a.u.).
With “AGGTACGCACACATGTCCACGTGCCCGGCTCTCCCGGCACCGGAGTCACCTAGTGCAG” the binding signal was 3880 fluorescence intensity (a.u.).
In the case of “ATTTTGTAGGTTCTAGCCACGTAATTGCGCGTGCTACTCACGGAGTCACCTAGTGCAG”, the binding signal was 6950 fluorescence intensity (a.u.).
In the case of “GAATGTTTGTCCACCAACCAGCAATGATGTGGACTTGTTGCGGAGTCACCTAGTGCAG”, the binding signal was 3140 fluorescence intensity (a.u.).
With “TGATGATGTTGTCATTGCTCCGGTGCGCTCTTTGTGTGTGCGGAGTCACCTAGTGCAG” the binding signal was 4470 fluorescence intensity (a.u.).
For “TTGAACGCAGAGGAATGTATGACTGTATGAGACCCCAAGACGGAGTCACCTAGTGCAG”, the binding signal was 5280 fluorescence intensity (a.u.).
“GAGTCGTTCGCGCCGTTCGGCCAGGTCATCGCCGCCACACCGGAGTCACCTAGTGCAG” was tested, and the binding signal was 8670 fluorescence intensity (a.u.).
For “ACAACAGGAATCCACCGTGACTTGCTTCACCACCACCCTGCGGAGTCACCTAGTGCAG”, the binding signal was 3160 fluorescence intensity (a.u.).
In the case of “TCAGCGAATTGGTACGTACCCTTGTACGTGTTGACGCCATCGGAGTCACCTAGTGCAG”, the binding signal was 3650 fluorescence intensity (a.u.).
For “TGTGCAATGTCATCAATTTATGTATTGTGTGTACCCTATCCGGAGTCACCTAGTGCAG”, the binding signal was 6160 fluorescence intensity (a.u.).
For “AGTACATAACATACCTTCATCTTTCGACCAGCTCATCTTTCGGAGTCACCTAGTGCAG”, the binding signal was 3830 fluorescence intensity (a.u.).
In the case of “CAAACTGCAACTCCAATATCACATTTTCTTTCTCTTTTCCCGGAGTCACCTAGTGCAG”, the binding signal was 19700 fluorescence intensity (a.u.).
With “GTTCTGCGCGGCGCACCCCACCGACGGCCGCGTCCGCGTCCGGAGTCACCTAGTGCAG” the binding signal was 3260 fluorescence intensity (a.u.).
For “ATGTCGAGCACCTGACCGCCGGTCACGTAGCGGCGGCGGCCGGAGTCACCTAGTGCAG”, the binding signal was 3620 fluorescence intensity (a.u.).
With “GCTAGCTTGATGACCTAGCAGCTTCATCGATTCTTGCGTGCGGAGTCACCTAGTGCAG” the binding signal was 3950 fluorescence intensity (a.u.).
In the case of “CGGCGACTACTACCTCATCGTCGTTGCTGACACCGAGGTCCGGAGTCACCTAGTGCAG”, the binding signal was 5440 fluorescence intensity (a.u.).
In the case of “GGGAAAGATGTCGTGGACTTGATTATACATACCGGTCAGACGGAGTCACCTAGTGCAG”, the binding signal was 3290 fluorescence intensity (a.u.).
With “CTAAAGATAATGCTATGCAAGTCGAGACAGCTCGATGAGCCGGAGTCACCTAGTGCAG” the binding signal was 3230 fluorescence intensity (a.u.).
“CTGTAGCAAATTAGAAGCAAAAGTGTTAGTTCAAATTGTGCGGAGTCACCTAGTGCAG” was tested, and the binding signal was 3320 fluorescence intensity (a.u.).
“CTCGTTTCTGTCTCGTACGTGCATGGGTCGATGATGACCACGGAGTCACCTAGTGCAG” was tested, and the binding signal was 3820 fluorescence intensity (a.u.).
For “GGTCCATGGTAATGGTGTAGTCGTGGTGGTTTTGTTTCTCCGGAGTCACCTAGTGCAG”, the binding signal was 3980 fluorescence intensity (a.u.).
With “TCAGCTAGTCTCCTTTATGCAATTTCTTTTATCTTCTCTTCGGAGTCACCTAGTGCAG” the binding signal was 26400 fluorescence intensity (a.u.).
In the case of “AATTTGTAGAACTTGTCGATTGTAAACCGTAGGATCGAGCCGGAGTCACCTAGTGCAG”, the binding signal was 15700 fluorescence intensity (a.u.).
In the case of “TTGGGTGGCGTGCGTCATCCACAGTAGCCGTCGTTGCGTCCGGAGTCACCTAGTGCAG”, the binding signal was 12200 fluorescence intensity (a.u.).
“AATTAAATGAACCCATCGTCATCAAGCACTAAGGTCGGCACGGAGTCACCTAGTGCAG” was tested, and the binding signal was 3540 fluorescence intensity (a.u.).
“TGAATACGTCCGGAATCGGTATGGGCGATGCTATCTCCTCCGGAGTCACCTAGTGCAG” was tested, and the binding signal was 3400 fluorescence intensity (a.u.).
In the case of “AGCTGGTCACTGTCTTGCTGCTGCTGATATCATCAGCACGCGGAGTCACCTAGTGCAG”, the binding signal was 3660 fluorescence intensity (a.u.).
With “TTTACTGAAGGACTATCTGATATCCAGTTTATCCACATCACGGAGTCACCTAGTGCAG” the binding signal was 3340 fluorescence intensity (a.u.).
For “TAGTAGATAGCTTTGCTCTCTCTCTTCATTTAATATATTCCGGAGTCACCTAGTGCAG”, the binding signal was 4540 fluorescence intensity (a.u.).
With “GCGGCGCGCGTGGGGAGGAGAGGACGGGCGGCTAGGGTTTCGGAGTCACCTAGTGCAG” the binding signal was 3320 fluorescence intensity (a.u.).
With “CAAACTTTGCACCTCTCTTTGCCGAGATGACACATGCTTTCGGAGTCACCTAGTGCAG” the binding signal was 5430 fluorescence intensity (a.u.).
With “GCCACTTTCACAAAGGAAAACAAAAGATAGGTGAGTCGGACGGAGTCACCTAGTGCAG” the binding signal was 4340 fluorescence intensity (a.u.).
“TTACATCGCGGGAGGCGTCTGTCCGTGTCACGCACTGACCCGGAGTCACCTAGTGCAG” was tested, and the binding signal was 3510 fluorescence intensity (a.u.).
With “CTGCAAAAGTATAAGAATCAGTAAATTCTTGCCGTGTAGACGGAGTCACCTAGTGCAG” the binding signal was 28500 fluorescence intensity (a.u.).
With “GAAGTGGCGGCCCTTGGCGGAGAGAATGGCATGGCGAGAGCGGAGTCACCTAGTGCAG” the binding signal was 65100 fluorescence intensity (a.u.).
For “TCGCCGCGCGGCTTGCCGTGACACCGTGACACGCCATCTTCGGAGTCACCTAGTGCAG”, the binding signal was 8540 fluorescence intensity (a.u.).
In the case of “GGATCGACCGGCTTTTGGCTGACAGGCGATGGCTAGAGCACGGAGTCACCTAGTGCAG”, the binding signal was 5780 fluorescence intensity (a.u.).
